This is one part of the list.
Each target was assayed with Cc1cc(ccc1-c1ccccc1)C(=O)N1CCCN(CC1)C(=O)CCl [compound 10] (assay: probe-labelled cysteine peptide fold change vs DMSO (competition) (log2 fold change); higher = less target engagement (more negative = stronger competition)). Settings: 10 µM; THP-1; incubation time: 4 h.
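Further: competitive profiling in live THP-1 cells: cysteine peptides tagged with an iodoacetamide desthiobiotin (IA-DTB) probe, intensity after compound treatment relative to DMSO-treated cells.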

Target | probe-labelled cysteine peptide fold change
RAB3GAP2_Q9H2M9_391_HGESICLSPCNTLAAVTDDFGR (UniProt Q9H2M9) | -0.0337
PYCR3_Q53H96_235_SDVCTPGGTTIYGLHALEQGGLR (UniProt Q53H96) | -0.563
QSOX1_O00391_449_GYVHYFFGCR (UniProt O00391) | 0.109
RACK1_P63244_182_VWNLANCK (UniProt P63244) | -0.00594
PXN_P49023_443_TWHPEHFFCAQCGAFFGPEGFHEK (UniProt P49023) | 0.16
PXN_P49023_505_ECFTPFVNGSFFEHDGQPYCEVHYHER (UniProt P49023) | 0.192
RABGGTA_Q92696_132_ELELCAR (UniProt Q92696) | 0.0503
QKI_Q96PU8_35_LMSSLPNFCGIFNHLER (UniProt Q96PU8) | 0.103
QARS_P47897_657_GPSGCVESLEVTCR (UniProt P47897) | 0.198
RAD54L2_Q9Y4B4_618_AFCVCCK (UniProt Q9Y4B4) | -0.173
RACK1_P63244_153_YTVQDESHSEWVSCVR (UniProt P63244) | 0.234
QRSL1_Q9H0R6_203_NPAAHCGLVGFK (UniProt Q9H0R6) | 0.356
PYGL_P06737_446_RINMAHLCIVGSHAVNGVAK (UniProt P06737) | -0.0121
RAE1_P78406_143_APNYSCVMTGSWDK (UniProt P78406) | 0.282
RAB20_Q9NX57_179_MLDEQDVPAAEQMCFETSAK (UniProt Q9NX57) | -0.442
QPRT_Q15274_96_GPAHCLLLGER (UniProt Q15274) | 0.0694
RAD51B_O15315_27_HQILTCQDFLCLSPLELMK (UniProt O15315) | 0.457
QSOX1_O00391_393_VNWIGCQGSEPHFR (UniProt O00391) | 0.0191
RABEP1_Q15276_718_EQIQAEQCLK (UniProt Q15276) | -0.0181
RAB3GAP1_Q15042_678_MQSACLLSDMESFK (UniProt Q15042) | 0.194

Target | probe-labelled cysteine peptide fold change
RAB3GAP2_Q9H2M9_395_RHGESICLSPCNTLAAVTDDFGR (UniProt Q9H2M9) | 0.195
PYCR1_P32322_120_CMTNTPVVVR (UniProt P32322) | 0.0918
RAI14_Q9P0K7_101_NSHHECIR (UniProt Q9P0K7) | 0.203
PYGB_P11216_326_TCFETFPDK (UniProt P11216) | -0.387
PYCARD_Q9ULZ3_173_LFSFTPAWNWTCK (UniProt Q9ULZ3) | -0.238
RAB33A_Q14088_135_MWIQECNGHAVPPLVPK (UniProt Q14088) | 0.0206
RAB8A_P61006_123_CDVNDKR (UniProt P61006) | -0.207
QARS_P47897_433_WCIYPTYDYTHCLCDSIEHITHSLCTK (UniProt P47897) | 0.168
PYGL_P06737_446_INMAHLCIVGSHAVNGVAK (UniProt P06737) | 0.052
PXN_P49023_108_TSSVSNPQDSVGSPCSR (UniProt P49023) | -0.282
PXN_P49023_290_CWAAGWPR (UniProt P49023) | -0.186
PYGB_P11216_446_INMAHLCVIGSHAVNGVAR (UniProt P11216) | 0.0264
PXN_P49023_443+446_TWHPEHFFCAQCGAFFGPEGFHEK (UniProt P49023) | 0.119
RAB23_Q9ULC3_130_IDLLDDSCIK (UniProt Q9ULC3) | -0.135
RAB24_Q969Q5_87_AAIVCYDLTDSSSFER (UniProt Q969Q5) | 0.23
RAB9B_Q9NP90_182_QVLAVEEQLEHCMLGHTIDLNSGSK (UniProt Q9NP90) | -0.143
RABEPK_Q7Z6M1_243_LNPTGAAPAGCAAHSAVAMGK (UniProt Q7Z6M1) | -0.00823
RABGEF1_Q9UJ41_359_RDLSIEEQSECAQDFYHNVAER (UniProt Q9UJ41) | 0.126
RABGEF1_Q9UJ41_157_GIHVDQSDLLCK (UniProt Q9UJ41) | -0.225

Same assay, conditions: 50 µM; THP-1; incubation time: 4 h

Target | probe-labelled cysteine peptide fold change
RAB3GAP2_Q9H2M9_391_HGESICLSPCNTLAAVTDDFGR (UniProt Q9H2M9) | 0.162
PYCR3_Q53H96_235_SDVCTPGGTTIYGLHALEQGGLR (UniProt Q53H96) | -0.315
QSOX1_O00391_449_GYVHYFFGCR (UniProt O00391) | 0.232
RACK1_P63244_182_VWNLANCK (UniProt P63244) | -0.0137
PXN_P49023_443_TWHPEHFFCAQCGAFFGPEGFHEK (UniProt P49023) | 0.138
PXN_P49023_505_ECFTPFVNGSFFEHDGQPYCEVHYHER (UniProt P49023) | 0.386
RABGGTA_Q92696_132_ELELCAR (UniProt Q92696) | 0.0777
QKI_Q96PU8_35_LMSSLPNFCGIFNHLER (UniProt Q96PU8) | -0.0212
QARS_P47897_657_GPSGCVESLEVTCR (UniProt P47897) | 0.101
RAD54L2_Q9Y4B4_618_AFCVCCK (UniProt Q9Y4B4) | -0.639
RACK1_P63244_153_YTVQDESHSEWVSCVR (UniProt P63244) | 0.176
QRSL1_Q9H0R6_203_NPAAHCGLVGFK (UniProt Q9H0R6) | 0.514
PYGL_P06737_446_RINMAHLCIVGSHAVNGVAK (UniProt P06737) | -0.0993
RAE1_P78406_143_APNYSCVMTGSWDK (UniProt P78406) | 0.0431
RAB20_Q9NX57_179_MLDEQDVPAAEQMCFETSAK (UniProt Q9NX57) | -0.255
QPRT_Q15274_96_GPAHCLLLGER (UniProt Q15274) | 0.0165
RAD51B_O15315_27_HQILTCQDFLCLSPLELMK (UniProt O15315) | 0.433
QSOX1_O00391_393_VNWIGCQGSEPHFR (UniProt O00391) | -0.114
RABEP1_Q15276_718_EQIQAEQCLK (UniProt Q15276) | 0.106
RAB3GAP1_Q15042_678_MQSACLLSDMESFK (UniProt Q15042) | 0.145

Target | probe-labelled cysteine peptide fold change
RAB3GAP2_Q9H2M9_395_RHGESICLSPCNTLAAVTDDFGR (UniProt Q9H2M9) | 0.126
PYCR1_P32322_120_CMTNTPVVVR (UniProt P32322) | -0.0741
RAI14_Q9P0K7_101_NSHHECIR (UniProt Q9P0K7) | -0.145
PYGB_P11216_326_TCFETFPDK (UniProt P11216) | -0.694
PYCARD_Q9ULZ3_173_LFSFTPAWNWTCK (UniProt Q9ULZ3) | -0.449
RAB33A_Q14088_135_MWIQECNGHAVPPLVPK (UniProt Q14088) | 0.0086
RAB8A_P61006_123_CDVNDKR (UniProt P61006) | -0.121
QARS_P47897_433_WCIYPTYDYTHCLCDSIEHITHSLCTK (UniProt P47897) | -0.0824
PYGL_P06737_446_INMAHLCIVGSHAVNGVAK (UniProt P06737) | 0.0358
PXN_P49023_108_TSSVSNPQDSVGSPCSR (UniProt P49023) | -0.571
PXN_P49023_290_CWAAGWPR (UniProt P49023) | -0.468
PYGB_P11216_446_INMAHLCVIGSHAVNGVAR (UniProt P11216) | 0.0636
PXN_P49023_443+446_TWHPEHFFCAQCGAFFGPEGFHEK (UniProt P49023) | -0.0963
RAB23_Q9ULC3_130_IDLLDDSCIK (UniProt Q9ULC3) | 0.536
RAB24_Q969Q5_87_AAIVCYDLTDSSSFER (UniProt Q969Q5) | 0.129
RAB9B_Q9NP90_182_QVLAVEEQLEHCMLGHTIDLNSGSK (UniProt Q9NP90) | -0.546
RABEPK_Q7Z6M1_243_LNPTGAAPAGCAAHSAVAMGK (UniProt Q7Z6M1) | -0.138
RABGEF1_Q9UJ41_359_RDLSIEEQSECAQDFYHNVAER (UniProt Q9UJ41) | 0.791
RABGEF1_Q9UJ41_157_GIHVDQSDLLCK (UniProt Q9UJ41) | -0.281

From the supplement of paper PMC12067093, “Discovery and optimisation of a covalent ligand for TRIM25 and its application to targeted protein ubiquitination” (Chemical Science, 2025)
